Measurements reported in PubChem BioAssay AID686943 (Drosophila RNAi Screening Center, 2013)

Test: 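Fly genes whose loss alters ERK activation after insulin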 (primary screen)
Cells: Drosophila S2R+ haemocyte-like cells expressing YFP-tagged ERK (Rolled)
Knock-down reagent: long dsRNA against Drosophila genes
Conditions: insulin stimulation versus unstimulated cells; dose and duration not given
Read-out: 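Per-plate z-scores of phospho-ERK immunostaining normalised to YFP-tagged ERK, measured with and without insulin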
Reading the numbers: replicate 1, z-score of dpERK with insulin and replicate 2, z-score of dpERK with insulin: higher = more active ERK per ERK-YFP after insulin
The deposit covers about 23,000 reagents; below is an unselected part of those with a known target gene and a result. 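Extra replicates exist only for a retested subset of genes; insulin dose and duration not given; both raised and lowered dpERK matter.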 A plus sign joins genes that one reagent is predicted to hit. Further read-outs or replicates are left out here. Not stated in the record: the amount of reagent, the time to read-out.

Sec61gamma (Sec61 gamma subunit) [SID104199362] | replicate 1, z-score of dpERK with insulin: -0.91; replicate 2, z-score of dpERK with insulin: -0.85
CG2124 [SID104198000] | replicate 1, z-score of dpERK with insulin: -0.31; replicate 2, z-score of dpERK with insulin: 0.24
prtp (pretaporter) [SID104199596] | replicate 1, z-score of dpERK with insulin: 0.66; replicate 2, z-score of dpERK with insulin: 1.27
prtp (pretaporter) [SID104201947] | replicate 1, z-score of dpERK with insulin: 0.58; replicate 2, z-score of dpERK with insulin: 0.51
laf (labial associated factor) [SID104192038] | replicate 1, z-score of dpERK with insulin: -0.52; replicate 2, z-score of dpERK with insulin: 0.05
inaF-C [SID104198694] | replicate 1, z-score of dpERK with insulin: 0.71; replicate 2, z-score of dpERK with insulin: 1.47
CG31446 [SID104192903] | replicate 1, z-score of dpERK with insulin: -0.34; replicate 2, z-score of dpERK with insulin: 0.11
Ankle2 [SID104199897] | replicate 1, z-score of dpERK with insulin: 1.25; replicate 2, z-score of dpERK with insulin: 0.46
Ankle2 [SID104199898] | replicate 1, z-score of dpERK with insulin: 0.29; replicate 2, z-score of dpERK with insulin: 0.57
mRRF2 (mitochondrial ribosome recycling factor 2) [SID104195935] | replicate 1, z-score of dpERK with insulin: 0.43; replicate 2, z-score of dpERK with insulin: 0.92
CG30284 [SID104201700] | replicate 1, z-score of dpERK with insulin: 0.07; replicate 2, z-score of dpERK with insulin: -0.6
POLDIP2 (Polymerase (DNA-directed), delta interacting protein 2) [SID104191986] | replicate 1, z-score of dpERK with insulin: 1.38; replicate 2, z-score of dpERK with insulin: 0.23
CR15280 (pseudo) [SID104181745] | replicate 1, z-score of dpERK with insulin: 1.53; replicate 2, z-score of dpERK with insulin: 1.64
CG2070 [SID104186606] | replicate 1, z-score of dpERK with insulin: -0.77; replicate 2, z-score of dpERK with insulin: -1.8
CG5539 [SID104184302] | replicate 1, z-score of dpERK with insulin: 0.26; replicate 2, z-score of dpERK with insulin: -0.4
E(var)3-9 (Enhancer of variegation 3-9) [SID104194243] | replicate 1, z-score of dpERK with insulin: 1.21; replicate 2, z-score of dpERK with insulin: -0.55
CheA75a (Chemosensory protein A 75a) [SID104190599] | replicate 1, z-score of dpERK with insulin: -0.13; replicate 2, z-score of dpERK with insulin: -0.02
CG43174 (retired record) + CG43173 (retired record) [SID104189309] | replicate 1, z-score of dpERK with insulin: -0.16; replicate 2, z-score of dpERK with insulin: -0.04
atk (artichoke) [SID104191210] | replicate 1, z-score of dpERK with insulin: -0.27; replicate 2, z-score of dpERK with insulin: -0.37
atk (artichoke) [SID104191561] | replicate 1, z-score of dpERK with insulin: 0.29; replicate 2, z-score of dpERK with insulin: 0.44
CG7432 [SID104196035] | replicate 1, z-score of dpERK with insulin: 0.1; replicate 2, z-score of dpERK with insulin: 0.15
CG42376 + cin [SID104198544] | replicate 1, z-score of dpERK with insulin: -1.33; replicate 2, z-score of dpERK with insulin: 0.07
CG18269 [SID104182452] | replicate 1, z-score of dpERK with insulin: -0.18; replicate 2, z-score of dpERK with insulin: 0.39
Ulp1 [SID104199131] | replicate 1, z-score of dpERK with insulin: 0.69; replicate 2, z-score of dpERK with insulin: 0.21
Cht6 (Chitinase 6) [SID104197793] | replicate 1, z-score of dpERK with insulin: -0.45; replicate 2, z-score of dpERK with insulin: 0.3
Cht6 (Chitinase 6) [SID104197794] | replicate 1, z-score of dpERK with insulin: -0.2; replicate 2, z-score of dpERK with insulin: -1.75
Cht6 (Chitinase 6) [SID104198045] | replicate 1, z-score of dpERK with insulin: 1.85; replicate 2, z-score of dpERK with insulin: 0.39
Tspo + rempA [SID104180325] | replicate 1, z-score of dpERK with insulin: 0.47; replicate 2, z-score of dpERK with insulin: 0.94
CG13482 [SID104189816] | replicate 1, z-score of dpERK with insulin: 0.31; replicate 2, z-score of dpERK with insulin: 0.58
Cda4 (Chitin deacetylase-like 4) [SID104200415] | replicate 1, z-score of dpERK with insulin: 0.93; replicate 2, z-score of dpERK with insulin: 0.07
Cda4 (Chitin deacetylase-like 4) [SID104200433] | replicate 1, z-score of dpERK with insulin: 0.63; replicate 2, z-score of dpERK with insulin: -0.04
Cda4 (Chitin deacetylase-like 4) [SID104200434] | replicate 1, z-score of dpERK with insulin: -0.22; replicate 2, z-score of dpERK with insulin: 0.15
